Experimental findings from PubChem BioAssay AID248 (DTP/NCI, 2004) are described below.

For the experiment, the system named is L1210 leukemia ip in BDF1 mice, survival T/C. In words: NCI In Vivo Anticancer Drug Screen. Data for tumor model L1210 Leukemia (intraperitoneal) in B6D2F1 (BDF1) mice. The conditions noted are these: T/C endpoint: mean survival time, higher T/C = longer survival.
Setting [1] is: dose: 400.0 mg/kg/injection, schedule: Q04DX003 (ip), vehicle: saline with Tween-80.
Setting [2] is: dose: 400.0 mg/kg/injection, schedule: Q04DX003 (ip), vehicle: Klucel (hydroxypropylcellulose) (HPC).
The mark [3] stands for this setting: dose: 5.0 mg/kg/injection, schedule: Q01DX001 (ip), vehicle: saline.
Setting [4] is: dose: 8.0 mg/kg/injection, schedule: Q01DX001 (ip), vehicle: saline.
The mark [5] stands for this setting: dose: 10.0 mg/kg/injection, schedule: Q01DX001 (ip), vehicle: saline.
Where [6] appears, read: dose: 20.0 mg/kg/injection, schedule: Q01DX001 (ip), vehicle: saline.
Setting [7] is: dose: 40.0 mg/kg/injection, schedule: Q01DX001 (ip), vehicle: saline.
[8] abbreviates: dose: 80.0 mg/kg/injection, schedule: Q01DX001 (ip), vehicle: saline.
Setting [9] is: dose: 100.0 mg/kg/injection, schedule: Q01DX001 (ip), vehicle: saline.
[10] abbreviates: dose: 200.0 mg/kg/injection, schedule: Q01DX001 (ip), vehicle: saline.
The mark [11] stands for this setting: dose: 400.0 mg/kg/injection, schedule: Q01DX001 (ip), vehicle: saline.
Where [12] appears, read: dose: 50.0 mg/kg/injection, schedule: Q01DX009 (ip), vehicle: Klucel (hydroxypropylcellulose) (HPC).
The mark [13] stands for this setting: dose: 100.0 mg/kg/injection, schedule: Q01DX009 (ip), vehicle: Klucel (hydroxypropylcellulose) (HPC).
Where [14] appears, read: dose: 200.0 mg/kg/injection, schedule: Q01DX009 (ip), vehicle: Klucel (hydroxypropylcellulose) (HPC).
Where [15] appears, read: dose: 400.0 mg/kg/injection, schedule: Q01DX009 (ip), vehicle: Klucel (hydroxypropylcellulose) (HPC).
The mark [16] stands for this setting: dose: 150.0 mg/kg/injection, schedule: Q01DX001 (ip), vehicle: saline.
[17] abbreviates: dose: 300.0 mg/kg/injection, schedule: Q01DX001 (ip), vehicle: saline.

SMILES strings stand for the structures. The list shows only some results of the screen, not a fair sample: it gathers tests that were run many times, whatever their T/C, doses with no T/C, and many T/C values between a quarter and a half above the control. Other doses and runs of a compound stand elsewhere. T/C is the treated group as % of the vehicle group. Some doses have a count of surviving animals in place of a T/C: the source holds a T/C of zero for them, seemingly a mark for toxic or unscored doses. Some doses without a T/C left all or most animals alive at the check, yet need not have been tolerated: survival well below the control is almost never listed, so the zero probably covers shortened survival too. Survivors were counted at the toxicity check, usually on the fifth day, unless a day is given; later deaths do not show. Schedule codes are those of the source, read here as Q, the interval in days (D) or hours (H), X, the number of doses. Some entries were tested several times; the values are given in rising order. Some schedule codes hold Z or #, which are not explained here. For survival time, this PubChem deposit counts one and a half times the control or more as active, and values a quarter to a half above the control carry no call in these data; other NCI protocols may use other cut-offs. Some T/C values are followed by the survivors on the day toxicity was checked, most often the fifth; where none is given, no animal had died by that day.

`O=C(C(=Nc1ccccc1)c1ccccc1)c1ccccc1`: under setting [1], the survivor count is on record as 6 of 6.
Take `O=C(O)[C@H]1CCCC[C@H]1C(=O)O`: the survivor count (dose: 100.0 mg/kg/injection, schedule: Q04DX003 (ip), vehicle: Klucel (hydroxypropylcellulose) (HPC)) is given as 6 of 6.
Regarding `S=C(NCc1ccccc1)[S][Sn]([c]1ccccc1)([c]1ccccc1)[c]1ccccc1`, the survivor count (dose: 100.0 mg/kg/injection, schedule: Q01DX001 (ip), vehicle: steroid suspending solution) is reported as 1 of 6; the survivor count (dose: 200.0 mg/kg/injection, schedule: Q01DX001 (ip), vehicle: steroid suspending solution) is given as 0 of 6; the survivor count (dose: 400.0 mg/kg/injection, schedule: Q01DX001 (ip), vehicle: steroid suspending solution) is on record as 0 of 6.
For `O=C(NCCCl)NNC(=O)c1ccccc1`, under setting [2], the survivor count is 3 of 6.
As for `NCc1ccc(Cl)cc1Cl`, the survivor count (dose: 400.0 mg/kg/injection, schedule: Q01DX009 (ip), vehicle: saline) is reported as 0 of 6.
With `Cc1n(Cc2ccccc2)c2c([n+]1C)C(=O)c1ccccc1C2=O`, the survivor count runs as follows: under setting [3], 0 of 4; under setting [4], 0 of 4; under setting [5], 0 of 4; under setting [6], 0 of 4; under setting [7], 0 of 4; (dose: 50.0 mg/kg/injection, schedule: Q01DX001 (ip), vehicle: saline) 0 of 4. Further, the survivor count is recorded as 0 of 4 under setting [8], 0 of 4 under setting [9], 0 of 4 under setting [10] and 0 of 4 under setting [11].
For `N#CCc1ccc(-c2ccccc2)cc1`, the survivor count runs as follows: (dose: 25.0 mg/kg/injection, schedule: Q04DX003 (ip), vehicle: saline with Tween-80) 6 of 6; (dose: 100.0 mg/kg/injection, schedule: Q04DX003 (ip), vehicle: saline with Tween-80) 2 of 6; (dose: 200.0 mg/kg/injection, schedule: Q04DX003 (ip), vehicle: saline with Tween-80) 0 of 6; under setting [1], 0 of 6.
`CCCC[P+](CCCC)(CCCC)Cc1ccc([N+](=O)[O-])cc1`: the T/C under setting [12] is 129 % of control [2 of 3 alive]. Moreover, the survivor count reads like this: under setting [13], 1 of 6 and 1 of 3; under setting [14], 0 of 6; under setting [15], 0 of 6.
With `CCc1c2cc(OC)c(OC)cc2cc2c3cc(OC)c(OC)cc3cc[n+]12` (tested in a mixture with another compound), the T/C was 147 % of control (dose: 44.0 mg/kg/injection, schedule: Q01DX009 (ip), vehicle: saline with Tween-80); 142 % of control (dose: 100.0 mg/kg/injection, schedule: Q01DX009 (ip), vehicle: saline with Tween-80); 145 % of control (dose: 100.0 mg/kg/injection, schedule: Q01DX009 (ip), vehicle: saline); 132 % of control [5 of 6 alive] (dose: 132.0 mg/kg/injection, schedule: Q04DX003 (ip), vehicle: saline); 137 % of control (dose: 200.0 mg/kg/injection, schedule: Q04DX003 (ip), vehicle: saline). Further, the survivor count was 3 of 6 (dose: 200.0 mg/kg/injection, schedule: Q01DX009 (ip), vehicle: saline with Tween-80) and 0 of 6 (dose: 400.0 mg/kg/injection, schedule: Q01DX009 (ip), vehicle: saline with Tween-80).
For the molecule `O=C1Oc2ccccc2C(=O)Oc2ccccc2C(=O)Oc2ccccc2C(=O)Oc2ccccc21`, the survivor count reads like this: under setting [16], 6 of 6; under setting [17], 6 of 6.
Turning to `Nc1ccc(S(=O)(=O)NCc2nccs2)cc1`, the survivor count is recorded as 2 of 6 under setting [9], 0 of 6 under setting [10] and 0 of 6 under setting [11].
On to `O=[N+]([O-])c1ccc(/C=C\c2ccncc2)cc1`, for which the survivor count (dose: 400.0 mg/kg/injection, schedule: Q01DX009 (ip), vehicle: carboxymethylcellulose (CMC)) was 0 of 6.
As for `CN(C)C(=O)O/N=C(\c1ccccc1)C(F)(F)F`, the survivor count is, setting by setting: (dose: 4.0 mg/kg/injection, schedule: Q01DX001 (ip), vehicle: saline) 0 of 6; under setting [3], 0 of 6; under setting [4], 0 of 6; under setting [5], 1 of 6; under setting [6], 0 of 6; under setting [7], 0 of 6. Further, the survivor count (dose: 75.0 mg/kg/injection, schedule: Q01DX001 (ip), vehicle: saline) was 0 of 6; the survivor count under setting [8] is on record as 0 of 6; the survivor count under setting [16] is on record as 0 of 6; the survivor count under setting [17] is reported as 0 of 6.
`Cc1ccc(CNC(=S)NC2CCCCC2)cc1C`: the survivor count is, setting by setting: under setting [14], 5 of 6; under setting [15], 1 of 6.
In the case of `[Br][Sn]([Br])([CH]1CCCCC1)[CH]1CCCCC1`, the survivor count is listed as 0 of 6 (dose: 37.5 mg/kg/injection, schedule: Q01DX001 (ip), vehicle: other); 0 of 6 (dose: 75.0 mg/kg/injection, schedule: Q01DX001 (ip), vehicle: other); 0 of 6 (dose: 150.0 mg/kg/injection, schedule: Q01DX001 (ip), vehicle: other); 0 of 6 (dose: 300.0 mg/kg/injection, schedule: Q01DX001 (ip), vehicle: other).
Regarding `COC1OC(CN2CC2)C2OC(C)(C)OC12` (stereo unspecified), the survivor count (dose: 150.0 mg/kg/injection, schedule: Q01DX001 (ip), vehicle: carboxymethylcellulose (CMC)) is reported as 2 of 6 and the survivor count (dose: 300.0 mg/kg/injection, schedule: Q01DX001 (ip), vehicle: carboxymethylcellulose (CMC)) was 0 of 6.
Take `N=C(N)N=Nc1cc(O)c(NN=C(N)N)cc1O`: the survivor count is, setting by setting: (dose: 30.0 mg/kg/injection, schedule: Q01DX Z (ip), vehicle: saline) 1 of 6; (dose: 60.0 mg/kg/injection, schedule: Q01DX Z (ip), vehicle: saline) 0 of 6; (dose: 60.0 mg/kg/injection, schedule: Q01DX Z (oral), vehicle: saline) 3 of 6; (dose: 120.0 mg/kg/injection, schedule: Q01DX Z (ip), vehicle: saline) 0 of 6.
As to `CC(=O)c1c(O)cc(O)cc1-c1cc(=O)c2c(O)ccc(C(C)=O)c2o1`, the survivor count (dose: 400.0 mg/kg/injection, schedule: Q01DX001 (ip), vehicle: carboxymethylcellulose (CMC)) is listed as 2 of 4.
In the case of `Nc1ccc(C(=O)N/N=C/c2ccc(Cl)cc2Cl)cc1`, the survivor count (dose: 400.0 mg/kg/injection, schedule: Q04DX002 (ip), vehicle: Klucel (hydroxypropylcellulose) (HPC)) is on record as 3 of 3.
As for `NC(=O)NN=C(CCl)CCl`, under “dose: 400.0 mg/kg/injection, schedule: Q04DX002 (ip), vehicle: saline”, the survivor count is 0 of 3.
For `NNC(=O)COc1ccccc1`, the survivor count under setting [10] is given as 1 of 6 and the survivor count under setting [11] is on record as 0 of 6.
`NS(=O)(=O)c1cccc([N+](=O)[O-])c1`: the survivor count was 5 of 6 (dose: 200.0 mg/kg/injection, schedule: Q04DX003 (ip), vehicle: Klucel (hydroxypropylcellulose) (HPC)) and 2 of 6 under setting [2].
On to `C=C(Br)CNC(=O)c1ccccc1`, for which the survivor count under setting [12] is 0 of 6; the survivor count under setting [13] is 6 of 6; the survivor count under setting [14] is listed as 0 of 6; the survivor count (dose: 400.0 mg/kg/injection, schedule: Q01DX001 (ip), vehicle: Klucel (hydroxypropylcellulose) (HPC)) is 0 of 6.
